In PMC5744976 one finds binding data, which are given here for two molecules.

The chains behind the UniProt entries cited, without tags or fusion partners.
UniProt Q9Y113: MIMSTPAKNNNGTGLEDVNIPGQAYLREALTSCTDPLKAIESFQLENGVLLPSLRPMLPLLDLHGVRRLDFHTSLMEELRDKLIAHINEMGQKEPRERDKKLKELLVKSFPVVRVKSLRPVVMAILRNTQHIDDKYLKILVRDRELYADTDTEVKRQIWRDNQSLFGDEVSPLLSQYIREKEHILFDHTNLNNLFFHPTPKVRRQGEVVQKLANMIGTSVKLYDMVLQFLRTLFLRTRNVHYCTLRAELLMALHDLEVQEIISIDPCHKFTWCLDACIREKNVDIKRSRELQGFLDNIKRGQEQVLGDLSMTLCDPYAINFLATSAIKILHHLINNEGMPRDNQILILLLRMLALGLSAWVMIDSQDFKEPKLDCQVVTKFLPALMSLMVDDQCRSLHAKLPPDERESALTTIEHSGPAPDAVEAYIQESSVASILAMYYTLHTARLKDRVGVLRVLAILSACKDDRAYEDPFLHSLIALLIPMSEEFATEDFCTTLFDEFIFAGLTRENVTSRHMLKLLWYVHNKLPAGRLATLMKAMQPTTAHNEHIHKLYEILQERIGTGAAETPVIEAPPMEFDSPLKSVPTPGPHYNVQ

In this assay the target is T1, Chromatin-Linked Adapter for MSL Proteins (CLAMP) (D. melanogaster (endogenous in S2 and Kc cells)) (UniProt Q9V9N4).
T1 sequence: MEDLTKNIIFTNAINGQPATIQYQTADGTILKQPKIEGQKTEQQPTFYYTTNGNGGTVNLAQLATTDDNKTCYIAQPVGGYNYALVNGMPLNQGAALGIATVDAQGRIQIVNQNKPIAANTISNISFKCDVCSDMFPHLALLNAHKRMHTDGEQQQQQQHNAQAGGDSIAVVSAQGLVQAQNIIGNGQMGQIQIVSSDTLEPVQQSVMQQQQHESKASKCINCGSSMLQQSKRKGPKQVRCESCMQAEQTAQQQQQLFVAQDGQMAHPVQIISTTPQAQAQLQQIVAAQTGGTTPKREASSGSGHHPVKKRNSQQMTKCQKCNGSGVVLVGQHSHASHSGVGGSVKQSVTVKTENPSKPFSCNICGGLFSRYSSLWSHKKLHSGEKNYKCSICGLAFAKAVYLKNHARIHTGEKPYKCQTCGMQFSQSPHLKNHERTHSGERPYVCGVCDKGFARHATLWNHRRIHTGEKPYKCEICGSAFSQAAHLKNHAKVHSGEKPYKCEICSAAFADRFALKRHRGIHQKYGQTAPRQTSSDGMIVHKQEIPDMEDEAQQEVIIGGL
Briefly: co-IP; non-crosslinked immunoprecipitation of CLAMP (or NELF-B, IgG) from S2 and Kc cell lysates with antibody-coupled Dynabeads; western blotting for NELF-A and NELF-B. (A western blot detects proteins with antibodies after separation by electrophoresis.)

Results are given in words; binding and its absence hold for the method and conditions named. In cells and extracts the contact can be indirect. Some results given as binding are weak or reduced against the parent protein; the word gives no strength.

With “Negative Elongation Factor B (from UniProt Q9Y113 1-594)”, the binding entry was “binds”.

B1: Negative Elongation Factor A (protein, UniProt Q86NP2 1-1251)
chain: MANVRDSDTSLWLHNKLGTSNDSWINGSICSQLNKEVLRNIKECFPDLQTQVKLKLLLSFLHIPRRLVEEWKAELEEVIEVAGLDSELWVSMLAETMKTFPATSSLNTEISDYEDTRPIFIDMVNDLRKLVTKHSDLGMLPLECQYLNKNALISVVGQQPAPVKHFTLKRKPKSAQLRTELLHKSADAQSSLKKASAPTIPLRSRGMPRKMTDTTPLKGIPSRMPTTGFRSATVPGNAAQRPNLSRTPAGRKDGGIKLIEFTEQPLGYAAAKKRKREQQLEEQQKKQEQKQQQAAAAAAAAATAAASNAGDSSPTDAATASGGETPVTPTSANNSFEIKMEPQQLNQSAGSLEEPQDDEMSGKANMECDIETPEYATATLDFAQATSTSVADGQPGKPAVETKLKTPRTPKSAAKLNNNNNNNNNNSFNHTPKRIKQEIEIKSEEIIVPASIKLEKIETSPSTQRVSIQQQPPSLVQRTPHLLIRSSPQKRQNNGATTSAGTTTTTVGNTTIKMEKLDIKPMIRATGVSPSTSAGTTTTLLTPQQLRQAANPLANLPNNISVKITSAKAKAAAAAAATSSGSQTQSQQPQTLQVQQAPQQSHPPLLINSSTPVILASSPSAQRAKALALPSSSTSATTTTTIPSQAIKTMPLSQLKTATNSGPVIISQTIIQPAKRAQQQAGTSSAAAASQQQQQQQSQQQLLHQQIQQQTQQQAQLPQQPQQQQTQYILATPQQQPQQIQQQQQQQQPILPTLTSFSHSRPMPQTTTLYQATTPSGSGQTPTKILLKTSGSSSVVMTPLRQAQPQQATAVVSSNPPPLVATSAAVVSPGQTTLNIQNVQLPNRPVTIQPASQAAQQQHMQAQLQQQQPHPQHTIVANTTATQQPKLSQVLMQPTAAVGTSGVSALNVSPTSGKNKTIILTQKGVILRNIGGDMYQQIPISNVGNMQGLGGTTLMTTTAGPPSLVKTTPSSGVQLQQQQSGKQILPTLIPTSSLGGQHVIVQQQQPTNVIGNSQQQTIIRPVMTNVGGGLTTLPQGLTLIQRPGQQPQLVQVQAAPGSTQRTIITQSNTAAAASQQQPRQQQQQILVQHKPAPTLQQRLVTSTTSGGQGQQGNPNAGLPRTVQVQVQAQQQQQPQQQQATQQQSQQAPQRRGLSLSNEHVHKAHEMFRKANRVSRPDKALILGFMAGLRENPRPNNENVLVIKLGETEEKVQQDNGHTALCLVESHIRLDYNTGEWKTFQNYRLQDQSAAS
As to B1, the binding entry is “binds”.
